Results on 65 compounds are retold here after PubChem BioAssay AID493014 (National Center for Advancing Translational Sciences (NCATS), 2011).

Structures are written as SMILES. The list shows a part of the results. Further columns of the screen follow, without active or inactive calls. Compounds called inactive in the main read-out are mostly missing here. The note in brackets gives the kind of curve behind each potency; many fits are weak.

The nature of this assay: qHTS Assay to Find Inhibitors of Chronic Active B-Cell Receptor Signaling. The settings on record: ABC-DLBCL IkBa-CBG/CBR reporter, luminescence ratio (green luciferase fused to IkBa over red control in TMD8 lymphoma cells), 4 h. The method in brief: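 Doxycycline induced both beetle luciferases in TMD8 lymphoma cells; IKK-driven degradation limits the IkappaBalpha-fused green signal, while red luminescence normalises for cell number and nonspecific effects. Compounds tested up to 46 uM, 4 hrs.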

Setting [1] is: measured here: CBR red luminescence, cell number.
The mark [2] stands for this setting: measured here: IkBa-CBG green luminescence.

By AC50 is commonly meant the midpoint of the concentration-response curve, whichever way the signal moves. For `COC(=O)CSc1nc(N)c(C#N)c(-c2ccco2)c1C#N`, the AC50 under setting [1] was 8.91 µM [falling, partial curve, poor fit].

As to `O=C(O)c1ccc(S(=O)(=O)/N=C2\C=C(Nc3ccccc3F)C(=O)c3ccccc32)cc1`, the half-maximal activity concentration (AC50) under setting [1] was 3.98 µM [falling, full curve].

For the compound `COc1cc(C)c(NC(=S)Nc2cccc(Cl)c2)cc1OC`, the half-maximal activity concentration (AC50) under setting [1] is 23.1 µM [rising, single point].

`COc1cc(OC)cc(C(=O)NC2CCN(C(=O)N3c4ccccc4Sc4ccccc43)CC2)c1`: under setting [1], the AC50 was 3.55 µM [rising, partial curve, poor fit].

As to `Cc1ccc(NC(=S)NCc2ccco2)c(C)c1`, the AC50 under setting [1] is 35.5 µM [rising, single point].

Consider `O=C(NCCN1CCOCC1)c1ccncc1`, for which, under setting [1], the AC50 is 29.1 µM [rising, single point].

Consider `O=C(/C=C/c1ccco1)Nc1ccc(Cl)c(S(=O)(=O)N2CCOCC2)c1`, for which the half-maximal activity concentration (AC50) under setting [1] is 15.8 µM [falling, single point].

On to `CCOC(=O)c1nn(-c2ccc(Cl)cc2Cl)c(=N)c(C#N)c1C`, for which the concentration at half-maximal activity (AC50) under setting [1] is 5.62 µM [rising, single point].

For the compound `Cc1ccc(C(=O)NCc2cccnc2)cc1S(=O)(=O)Nc1ccccc1`, under setting [1], the AC50 is 35.5 µM [rising, single point].

For `CCC(C(=O)NC1CCCC1)N(Cc1ccc2c(c1)OCO2)C(=O)c1snc(C(N)=O)c1N` (stereo not drawn), the AC50 under setting [1] is 1.41 µM [falling, partial curve, poor fit].

As for `Cc1ccc(OCC(=O)O/N=C(\N)c2cccnc2)cc1`, the concentration at half-maximal activity (AC50) under setting [1] was 0.562 µM [rising, partial curve, poor fit].

With `COCCNC(=S)N/N=C(\C)c1ccccc1O`, the AC50 under setting [1] was 16.4 µM [rising, partial curve].

On to `O=C(COc1ccc2c(c1)CCC2)N1CCc2ccccc21`, for which the half-maximal activity concentration (AC50) under setting [1] is 35.5 µM [falling, single point].

As for `O=C(COC(=O)COc1ccccc1)NC1CCCC1`, under setting [1], the concentration at half-maximal activity (AC50) was 23.1 µM [rising, single point].

Consider `O=C1CN(C(=O)c2ccc(Br)o2)C(c2ccccc2)c2cc(Br)ccc2N1` (stereo not drawn), for which the AC50 under setting [1] was 11.2 µM [falling, partial curve] and the concentration at half-maximal activity (AC50) under setting [2] is 12.6 µM [rising, partial curve, poor fit].

Take `Cc1ccc(NC(=O)CNC(C)c2ccccc2)cc1` (stereo not drawn): the AC50 under setting [1] is 5.01 µM [rising, full curve].

For `CCn1c(SCC(=O)Nc2cccc(NC(C)=O)c2)nnc1C(C)C`, the half-maximal activity concentration (AC50) under setting [1] is 29.1 µM [rising, single point].

`Cc1nn(C(=O)c2ccco2)c(C)c1Sc1ccc([N+](=O)[O-])cc1`: the AC50 under setting [1] was 4.11 µM [rising, single point].

For the compound `N#Cc1ccc(Oc2cnccn2)cc1`, the AC50 under setting [1] was 25.1 µM [rising, partial curve, poor fit].

Turning to `Fc1cccc(COc2ccccc2C(=S)N2CCCC2)c1`, the half-maximal activity concentration (AC50) under setting [1] was 0.112 µM [rising, full curve, poor fit].

On to `S=c1[nH]nc(-c2cc(-c3ccccc3)n[nH]2)n1/N=C/c1c2ccccc2cc2ccccc12`, for which the concentration at half-maximal activity (AC50) under setting [1] is 35.5 µM [falling, single point].

On to `COc1ccc(NC(=O)C2CCCN(C(=O)Nc3ccc(OC)cc3)C2)cc1` (stereo not drawn), for which, under setting [1], the concentration at half-maximal activity (AC50) was 35.5 µM [rising, single point].

Turning to `COc1cc(NS(C)(=O)=O)ccc1Nc1c2ccccc2nc2ccccc12`, the AC50 under setting [1] is 20.6 µM [falling, partial curve, poor fit] and the AC50 under setting [2] was 9.2 µM [rising, partial curve, poor fit].

Consider `CS(=O)(=O)Nc1ccc(C2=NN(C(=O)C3CCCCC3)C(c3cccs3)C2)cc1` (stereo not drawn), for which, under setting [1], the half-maximal activity concentration (AC50) is 32.6 µM [falling, single point].

For `Cc1ccc(NC2=C(Cl)C(=O)OC2OC(=O)c2ccco2)cc1C` (stereo not drawn), the AC50 under setting [1] was 7.31 µM [falling, partial curve].

In the case of `N#Cc1nc(-c2ccc(Cl)cc2)oc1NCC1CCCO1` (stereo not drawn), the half-maximal activity concentration (AC50) under setting [1] was 2 µM [rising, full curve].

`Cc1cc(SCC(=O)Nc2cccc(S(=O)(=O)NC3=NCCCCC3)c2)nc2ccccc12`: under setting [1], the AC50 is 11.2 µM [falling, partial curve].

For `S=C(NCc1ccc(Cl)cc1)Nc1ccc(Cl)cc1Cl`, the AC50 under setting [1] was 14.6 µM [rising, partial curve].

On to `COC(=O)C1=C(C)N(c2cc(C)cc(C)c2)/C(=C/c2ccco2)C1=O`, for which the half-maximal activity concentration (AC50) under setting [1] was 35.5 µM [falling, single point].

As to `O=C(CCNC(=O)c1ccccc1Cl)Nc1cc(S(=O)(=O)N2CCOCC2)ccc1N1CCCC1`, the half-maximal activity concentration (AC50) under setting [1] is 20 µM [rising, single point].

With `CCOc1ccc(NC(=O)CSc2nccn2C)cc1`, the AC50 under setting [1] was 32.6 µM [rising, partial curve, poor fit].

`COc1ccc(-c2nc(-c3cccnc3)no2)cc1OC`: the concentration at half-maximal activity (AC50) under setting [1] was 1.78 µM [rising, partial curve].

For the compound `CC(=O)Nc1ccc(NC(C)=O)s1`, the concentration at half-maximal activity (AC50) under setting [1] was 29.1 µM [rising, single point].

Regarding `Cc1cc(C)cc(N2C(=O)N(CC(=O)c3ccc(Br)cc3)c3ccccc3S2(=O)=O)c1`, the AC50 under setting [1] is 0.1 µM [rising, full curve, poor fit].

Turning to `Cc1nn(C(=O)c2cccc([N+](=O)[O-])c2)c(C)c1Sc1ccccc1`, the concentration at half-maximal activity (AC50) under setting [1] is 3.55 µM [falling, single point].

Consider `C=CCc1c(C)nc(-c2ccccc2)nc1N/N=C/c1ccncc1`, for which the AC50 under setting [1] was 5.62 µM [falling, partial curve].

Consider `COc1ccccc1OCc1nnc(SCC(=O)NCc2ccco2)n1-c1ccccc1`, for which, under setting [1], the half-maximal activity concentration (AC50) is 18.4 µM [rising, partial curve, poor fit].

`OCCNc1nc(Nc2ccc(Cl)c(Cl)c2)nc2ccccc12`: the AC50 under setting [1] was 12.6 µM [falling, single point].

Take `COc1ccc(CC(=O)Nc2oc(-c3ccccc3)c(-c3ccccc3)c2C#N)cc1OC`: the AC50 under setting [1] was 1.64 µM [falling, full curve] and the concentration at half-maximal activity (AC50) under setting [2] was 3.66 µM [rising, full curve].

On to `O=C(NCCc1ccccn1)c1n[nH]c(=O)c2ccccc12`, for which the concentration at half-maximal activity (AC50) under setting [1] is 8.91 µM [falling, partial curve, poor fit].

As to `COC(=O)c1ccc(CSc2nnc(Nc3cccc(OC)c3)s2)o1`, the concentration at half-maximal activity (AC50) under setting [1] was 22.4 µM [falling, partial curve, poor fit].

Take `Cc1nnc(NC(=O)c2oc3c(ccc4ccccc43)c2C)s1`: the half-maximal activity concentration (AC50) under setting [1] was 14.1 µM [rising, single point].

For `COc1ccc(-c2nn(-c3ccccc3)cc2/C=N/O)cc1`, under setting [1], the AC50 was 35.5 µM [falling, single point].

`CC(=O)NC12CC3CC(C1)CC(C(=O)Nc1nc4ccc(F)cc4s1)(C3)C2`: the AC50 under setting [1] is 31.6 µM [falling, partial curve, poor fit].

Take `COc1ccc(C(=O)NCC(=O)OCC(=O)Nc2sccc2C#N)cc1OC`: the half-maximal activity concentration (AC50) under setting [1] is 7.94 µM [rising, partial curve, poor fit].

In the case of `COc1ccc(CCN2C(=O)CSC2=Nc2ccc(C)cc2C)cc1OC`, the half-maximal activity concentration (AC50) under setting [1] is 5.62 µM [rising, single point].

As for `O=C(CS(=O)(=O)Cc1ccccc1)Nc1nnc(C2CCCCC2)s1`, the AC50 under setting [1] is 31.6 µM [rising, single point].

In the case of `COC(=O)c1ccc(OS(=O)(=O)N(C)C)cc1`, the AC50 under setting [1] was 14.1 µM [rising, single point].

For `CC1CCCC(C)N1C(=O)CSc1nnc(C2CCCCC2)o1` (stereo not drawn), under setting [1], the half-maximal activity concentration (AC50) was 0.562 µM [falling, full curve].

In the case of `Cc1ccc(-c2onc3ccc(C4(C)OCCO4)cc23)cc1`, the AC50 under setting [1] is 29.1 µM [rising, single point].

For the compound `COc1ccccc1CN1CCNC(=O)C1CC(=O)N(C)CC1CCOCC1` (stereo not drawn), the AC50 under setting [1] is 6.31 µM [falling, single point].

On to `COC(=O)c1ccccc1NC(=O)COC(=O)C1CCCCC1`, for which, under setting [1], the AC50 was 35.5 µM [rising, single point].

Consider `O=C(NCc1ccccn1)c1ccc(-c2ccccc2)cc1`, for which the AC50 under setting [1] was 1.12 µM [rising, full curve, poor fit].

`CC1(C)SC(=S)N(NC(=O)Nc2cccc3ccccc23)C1N(O)C(=O)Nc1ccccc1` (stereo not drawn): the AC50 under setting [1] is 29.1 µM [falling, single point].

Turning to `COc1ccc2[nH]c(C(=O)N/N=C/c3ccc(O)cc3O)cc2c1`, under setting [1], the concentration at half-maximal activity (AC50) was 11.2 µM [falling, partial curve, poor fit].

As for `C/C(=N\NC(=O)c1cccc(S(=O)(=O)Nc2cccc(Cl)c2)c1)c1cccs1`, the AC50 under setting [1] is 20.6 µM [rising, partial curve, poor fit].

Take `CC(C)Cc1csc(NC(=O)c2ccc(F)cc2)c1C(=O)O`: under setting [1], the half-maximal activity concentration (AC50) was 0.517 µM [falling, full curve].

Consider `Cc1csc(NC(=O)CSc2ccc(-c3ccccn3)nn2)n1`, for which the AC50 under setting [1] is 4.47 µM [falling, full curve].

In the case of `COc1cc2c(cc1OC)CN(CC(=O)Nc1ccc(F)cc1)CC2`, under setting [1], the AC50 is 7.08 µM [falling, partial curve].

Take `Cc1nc2nc(SCC(=O)NCc3ccco3)nn2c(C)c1Cc1ccccc1`: the half-maximal activity concentration (AC50) under setting [1] is 29.1 µM [falling, single point].

`CCOc1ccc(Br)cc1C1=NN(C(C)=O)C(c2ccc([N+](=O)[O-])s2)O1` (stereo not drawn): under setting [1], the AC50 is 7.08 µM [falling, partial curve, poor fit].

Regarding `CNCc1c(OCc2ccccc2F)ccc2ccccc12`, the half-maximal activity concentration (AC50) under setting [1] is 35.5 µM [falling, single point].

`CCN(CCNC(=O)C1CCN(S(=O)(=O)c2cccc3nsnc23)CC1)c1ccccc1`: the half-maximal activity concentration (AC50) under setting [1] is 7.94 µM [falling, partial curve, poor fit].

In the case of `COCc1cc(C)nc(Oc2ccccc2)c1C#N`, the half-maximal activity concentration (AC50) under setting [1] was 4.47 µM [rising, full curve, poor fit].

Take `O=C(COC(=O)c1ccco1)c1ccc2ccccc2c1`: the AC50 under setting [1] is 18.4 µM [rising, partial curve, poor fit].
